This test deals with SUMO E3 ligase mutant PIAS1 (CS) (MYC-tagged). Put plainly: co-IP; lysates of 293T cells co-expressing SnoN and PIAS1 (WT or CS); anti-MYC (9E10) IP of PIAS1, anti-SnoN blot; TNTE buffer (50 mM Tris-HCl pH 7.4, 150 mM NaCl, 1 mM EDTA) with 0.5% Triton X-100.

No constants are given. Whether binding was seen depends on the method and setting. In cells and extracts the contact can be indirect. A result given as binding can be weak or reduced; the word gives no strength. Tags and fused reporters may be left off the sequences shown.

B1: FLAG-tagged wild type SnoN (protein, UniProt P12757-1 1-684)
chain: MENLQTNFSLVQGSTKKLNGMGDDGSPPAKKMITDIHANGKTINKVPTVKKEHLDDYGEAPVETDGEHVKRTCTSVPETLHLNPSLKHTLAQFHLSSQSSLGGPAAFSARHSQESMSPTVFLPLPSPQVLPGPLLIPSDSSTELTQTVLEGESISCFQVGGEKRLCLPQVLNSVLREFTLQQINTVCDELYIYCSRCTSDQLHILKVLGILPFNAPSCGLITLTDAQRLCNALLRPRTFPQNGSVLPAKSSLAQLKETGSAFEVEHECLGKCQGLFAPQFYVQPDAPCIQCLECCGMFAPQTFVMHSHRSPDKRTCHWGFESAKWHCYLHVNQKYLGTPEEKKLKIILEEMKEKFSMRSGKRNQSKTDAPSGMELQSWYPVIKQEGDHVSQTHSFLHPSYYLYMCDKVVAPNVSLTSAVSQSKELTKTEASKSISRQSEKAHSSGKLQKTVSYPDVSLEEQEKMDLKTSRELCSRLDASISNNSTSKRKSESATCNLVRDINKVGIGLVAAASSPLLVKDVICEDDKGKIMEEVMRTYLKQQEKLNLILQKKQQLQMEVKMLSSSKSMKELTEEQQNLQKELESLQNEHAQRMEEFYVEQKDLEKKLEQIMKQKCTCDSNLEKDKEAEYAGQLAELRQRLDHAEADRQELQDELRQEREARQKLEMMIKELKLQILKSSKTAKE
As to B1, the binding entry is reported as “binds”.
